Data published in PubChem BioAssay AID1439 (NMMLSC, 2008).
About 770 (0.35%) of roughly 220,000 compounds were called active. The shares of active, inactive and inconclusive entries below differ from those in the screen. Cut-off read from the data, not from the text of the source: active = binding response below about 49% or above about 150%; inconclusive = no clear call, values can overlap the other calls; inactive = in between.

The chains behind the UniProt entries cited, without tags or fusion partners.
UniProt P09471, whole entry, looked up: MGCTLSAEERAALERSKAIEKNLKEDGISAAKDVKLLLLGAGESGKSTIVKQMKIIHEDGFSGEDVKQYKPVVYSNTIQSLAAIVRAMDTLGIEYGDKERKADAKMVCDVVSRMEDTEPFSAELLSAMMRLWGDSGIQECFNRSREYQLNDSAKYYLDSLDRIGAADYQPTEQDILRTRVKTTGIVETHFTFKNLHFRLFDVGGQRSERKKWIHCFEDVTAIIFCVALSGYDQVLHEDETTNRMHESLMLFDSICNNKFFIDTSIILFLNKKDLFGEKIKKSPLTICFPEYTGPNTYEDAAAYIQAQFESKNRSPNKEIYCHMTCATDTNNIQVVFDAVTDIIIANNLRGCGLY

biological target: Guanine nucleotide-binding protein G(o) subunit alpha (Homo sapiens) (UniProt P09471); test: RGS7-Galphao binding modulators, primary screen, biochemical, multiplexed bead flow cytometry (AID 1439); conditions: at 10 µM, actives lie on both sides;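 note: fluorescent Galphao held in activated GDP-AlF4 state binding bead-coupled RGS7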

Compound	binding response (% of control)
O=[N+]([O-])c1cc(/C=N/O)ccc1Oc1ccccc1Cl	inactive: 104%
[O-][N+]12CCCCC1CCCC2CO (stereo not given)	inconclusive: 88.8%
O=C(Nc1ccc(S(=O)(=O)NC2=NCCCCC2)cc1)c1ccccc1Cl	inconclusive: 108%
Cc1ccc(NNC(N)=S)cc1Cl	inconclusive: 105%
COc1ccc(C2(CNC(=O)c3cccs3)CCOCC2)cc1	inactive: 99.3%
Nc1nnnn1CC(=O)N/N=C/c1ccc(-c2cccc(Cl)c2)o1	inconclusive: 114%
O=C(O)c1ccccc1C(=O)Nc1ccc(-n2ccc(C(F)(F)F)n2)cc1	inconclusive: 110%
COc1cccc(C(=O)NNC(=O)c2ccccc2Br)c1	inactive: 99%
O=C(N(c1ccccc1)c1ccccc1)N(c1ccccc1)c1ccccc1	inconclusive: 120%
CCN(CC)C(C)C#CCC(c1ccccc1)c1ccccc1 (stereo not given)	inconclusive: 127%
Cc1cc(C(F)(F)F)n(-c2nc(C(=O)NN)cs2)n1	inconclusive: 102%
COc1ccc(Sc2nc(-c3ccccn3)ncc2OC)cc1	inconclusive: 109%
CCCc1nnc(NC(=O)CCC(=O)N2CCN(c3nc(C)cc(C)n3)CC2)s1	inconclusive: 126%
Brc1ccc(CNc2nc3ccccc3n2CCN2CCCCC2)cc1	inconclusive: -1.38%
Cc1ccc(C2=NNC(=O)C(P(=O)(c3ccccc3)c3ccccc3)C2)cc1 (stereo not given)	inactive: 98%
O=C(Nc1ccc(N2CCN(C(=O)c3ccccc3)CC2)c(Cl)c1)c1ncn[nH]1	inconclusive: 73.4%
COc1ccccc1N=C1SCC(=O)N1c1ccccc1OC	inactive: 114%
CCOC(=O)C1=C2NC(=O)c3ccccc3N2C(=O)C1	inactive: 102%
O=C(NNC1CC(=O)N(c2ccccc2)C1=O)c1ccccc1Cl (stereo not given)	inconclusive: 97.7%
Cc1ccccc1-n1c(=S)[nH]c2nc3c(cc2c1=O)COC(C)(C)C3	inconclusive: 100%

Part of the list above, in CSV form:
Compound,binding response (% of control)
[O-][N+]12CCCCC1CCCC2CO (stereo not given),inconclusive: 88.8%
O=C(O)c1ccccc1C(=O)Nc1ccc(-n2ccc(C(F)(F)F)n2)cc1,inconclusive: 110%
Brc1ccc(CNc2nc3ccccc3n2CCN2CCCCC2)cc1,inconclusive: -1.38%
Cc1ccc(C2=NNC(=O)C(P(=O)(c3ccccc3)c3ccccc3)C2)cc1 (stereo not given),inactive: 98%
CCOC(=O)C1=C2NC(=O)c3ccccc3N2C(=O)C1,inactive: 102%

Continuation:

Compound	binding response (% of control)
C/C(=N\O)c1oc2ccc3c(C)cc(=O)oc3c2c1C	inconclusive: 52.1%
CSc1nc2ccc(NC(=O)NC(=O)c3c(F)cccc3F)cc2s1	inconclusive: -64.4%
COC(=O)c1sccc1-n1cc(C#N)c(=O)n(C)c1=O	inconclusive: 176%
Cc1ccc(S(=O)(=O)CCC#N)cc1	inconclusive: 16.9%
N#C/C(=C\c1ccc(-c2ccccc2[N+](=O)[O-])o1)C(N)=O	inconclusive: 75.9%
Cc1cc(NC(=O)CSc2nnc3c4c(C)c(C)sc4ncn23)no1	active: 188% [activator]
O=C(NCCCn1ccnc1)c1cc(S(=O)(=O)N2CCOCC2)ccc1F	inactive: 99.8%
Cn1c(SCC(=O)N/N=C/c2ccccn2)nnc1-c1ccccc1	inconclusive: 181%
C/C(=N\NC(=S)Nc1c(C)cccc1C)c1ccc(O)cc1	inconclusive: 172%
COc1ccccc1CNCC(=O)Nc1ccc(C(F)(F)F)cc1	inconclusive: 125%
O=C(COC(=O)Cn1cnc2ccccc21)Nc1cccc([N+](=O)[O-])c1	inconclusive: 84.1%
O=C(N/N=C/c1ccc([N+](=O)[O-])o1)c1sc2ccccc2c1Cl	inconclusive: 105%
CCOC(=O)NC1(C(F)(F)F)C(=O)NC(C)=C1C(=O)OC (stereo not given)	inactive: 95.8%
O=C(COC(=O)CCOc1ccccc1)Nc1ncc(Cl)cc1Cl	inactive: 99.2%
O=[N+]([O-])c1ccccc1-c1ccc(C(=S)N2CCCC2)o1	inconclusive: 66.7%
CSc1nc2nc3c(cc2c(=O)n1-c1ccccc1C)CCCC3	inconclusive: 100%
CCOC(=O)C1(CC2CCCCO2)CCN(S(=O)(=O)c2c(C)nn(C)c2C)CC1 (stereo not given)	inactive: 94.1%
Cc1ccc(C(=O)NCCN2CCNC2=O)cc1	inconclusive: 81.9%
COc1ccc(NS(=O)(=O)c2ccc(Cl)c(N)c2)cc1Br	inconclusive: 101%
COc1ccc(NC(=O)CC2(CC(=O)O)CCCC2)cn1	inconclusive: 87.8%

Compound	binding response (% of control)
CC(C)(C)c1ccc(C(=O)NCC(=O)N/N=C/c2ccccc2OCC(=O)O)cc1	inactive: 99.3%
COCCNC(=O)COc1ccc(C)cc1C(=O)c1cc(C#N)c(=O)n(C2CC2)c1	inconclusive: 106%
COC(=O)c1ccccc1NC(=O)CSc1nnc(-c2cccc(NC(C)=O)c2)n1C	inactive: 101%
Cc1nnc(-c2cnn(-c3ccccc3)c2N)n1Cc1ccncc1	inactive: 122%
O=C(N/N=C/c1ccncc1)C1CC1(c1ccccc1)c1ccccc1 (stereo not given)	inconclusive: 457%
O=S(=O)(Nc1ccc2cn[nH]c2c1)c1ccc(Cl)s1	inconclusive: 104%
CCN(C(=O)Cn1cnc2cc([N+](=O)[O-])ccc2c1=O)C1CCS(=O)(=O)C1 (stereo not given)	inactive: 102%
Cn1ccnc1/C(=N\NC(=O)c1ccc(O)cc1)c1cccc([N+](=O)[O-])c1	inconclusive: 126%
CCc1ccc(C(=O)NNc2cc(Cl)cc(Cl)c2)cc1	inconclusive: 82.3%
N#Cc1ccc(C23CC4(C2)[C@H](CN(Cc2cccnc2)[C@@H]4c2ccccc2)C3c2ccccc2)cc1 (stereo not given in full)	inconclusive: 99.3%
CC(C)CN1C2CCCC1CC(NC(=S)NCc1ccco1)C2 (stereo not given)	inactive: 95.8%
CN(C)CCOc1ccc(Cl)cc1C(C)(C)C	inconclusive: 122%
O=C(N/N=C/c1ccc([N+](=O)[O-])cc1)c1cc2ccccc2o1	inconclusive: 150%
O=C1NC[C@H](c2ccccc2)N(CC2CCCCC2)C1=O	inconclusive: 87.7%
CCOC(=O)c1ccc(-c2ccc(C=O)o2)cc1	inconclusive: 128%
CCOC(=O)c1ccc(NC(=O)COc2ccc(CNCCO)cc2OCC)cc1	inconclusive: 101%
CCOC(=O)c1cn2nc(Oc3ccccc3)ccc2n1	inconclusive: 112%
COc1ccc(C(F)(F)F)cc1N/C=C/c1nnnn1-c1ccc(C)cc1	inconclusive: 103%
Cn1c(=O)c2[nH]c(SCc3ccccn3)nc2n(C)c1=S	inconclusive: 48.4%
CCOc1ccccc1NC(=O)CN1CCC(NC(=O)c2ccccc2C)CC1	inconclusive: 103%
